This is one part of the list. Small differences around the control level are noise.
Compound: Cc1nc(Nc2ncc(C(=O)Nc3c(C)cccc3Cl)s2)cc(N2CCN(CCO)CC2)n1 [dasatinib]
Assay: log2 fold change of tryptic peptide abundance, ligand vs vehicle (limited proteolysis) (log2 ratio); higher = more trypsin-susceptible (destabilized)
Conditions: ligand concentration: 5 uM; sample: K562 cleared lysate

Amino acid sequences for entries named in this document (tags omitted). A change or cut given only in a name is not applied to a line headed by its entry.
UniProt Q6IQ26: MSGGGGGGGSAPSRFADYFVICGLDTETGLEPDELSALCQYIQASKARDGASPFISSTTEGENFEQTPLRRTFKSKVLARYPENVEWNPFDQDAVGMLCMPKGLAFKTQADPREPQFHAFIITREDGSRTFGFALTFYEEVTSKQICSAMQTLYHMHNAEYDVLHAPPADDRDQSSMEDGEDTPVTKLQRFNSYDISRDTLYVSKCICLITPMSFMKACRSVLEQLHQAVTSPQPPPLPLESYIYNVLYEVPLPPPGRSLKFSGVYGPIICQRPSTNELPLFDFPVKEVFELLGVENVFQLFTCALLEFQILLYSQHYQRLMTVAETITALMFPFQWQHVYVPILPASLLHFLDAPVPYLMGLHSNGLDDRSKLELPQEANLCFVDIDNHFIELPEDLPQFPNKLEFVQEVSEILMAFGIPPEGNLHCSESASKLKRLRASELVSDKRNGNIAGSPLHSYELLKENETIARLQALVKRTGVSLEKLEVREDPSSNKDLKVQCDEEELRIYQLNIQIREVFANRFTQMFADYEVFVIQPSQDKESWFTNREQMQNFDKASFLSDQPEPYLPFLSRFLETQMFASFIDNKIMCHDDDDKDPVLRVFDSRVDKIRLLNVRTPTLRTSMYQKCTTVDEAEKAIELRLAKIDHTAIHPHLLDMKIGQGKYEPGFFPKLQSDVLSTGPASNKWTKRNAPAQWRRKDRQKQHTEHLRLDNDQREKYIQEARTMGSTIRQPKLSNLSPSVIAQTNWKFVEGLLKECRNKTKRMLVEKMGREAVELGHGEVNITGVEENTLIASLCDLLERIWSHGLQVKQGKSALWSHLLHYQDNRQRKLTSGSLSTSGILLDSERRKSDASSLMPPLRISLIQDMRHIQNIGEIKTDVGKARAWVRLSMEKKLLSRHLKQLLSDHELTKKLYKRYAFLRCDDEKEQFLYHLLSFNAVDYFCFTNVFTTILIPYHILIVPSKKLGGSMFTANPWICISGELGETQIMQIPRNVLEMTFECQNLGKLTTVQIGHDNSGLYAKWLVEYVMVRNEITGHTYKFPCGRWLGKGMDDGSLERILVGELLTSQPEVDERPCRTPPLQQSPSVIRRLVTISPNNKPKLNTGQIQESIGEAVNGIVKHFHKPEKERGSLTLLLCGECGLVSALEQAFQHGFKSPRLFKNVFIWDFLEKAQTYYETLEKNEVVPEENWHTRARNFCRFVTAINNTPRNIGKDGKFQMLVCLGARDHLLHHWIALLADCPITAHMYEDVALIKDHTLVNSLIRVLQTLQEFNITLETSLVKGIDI
UniProt Q6UW68: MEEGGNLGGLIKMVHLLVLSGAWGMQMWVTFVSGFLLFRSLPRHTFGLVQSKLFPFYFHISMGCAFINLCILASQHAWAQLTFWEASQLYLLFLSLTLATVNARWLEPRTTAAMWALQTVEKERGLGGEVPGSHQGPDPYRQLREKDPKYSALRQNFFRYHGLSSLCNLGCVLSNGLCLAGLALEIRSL
UniProt Q6AI08: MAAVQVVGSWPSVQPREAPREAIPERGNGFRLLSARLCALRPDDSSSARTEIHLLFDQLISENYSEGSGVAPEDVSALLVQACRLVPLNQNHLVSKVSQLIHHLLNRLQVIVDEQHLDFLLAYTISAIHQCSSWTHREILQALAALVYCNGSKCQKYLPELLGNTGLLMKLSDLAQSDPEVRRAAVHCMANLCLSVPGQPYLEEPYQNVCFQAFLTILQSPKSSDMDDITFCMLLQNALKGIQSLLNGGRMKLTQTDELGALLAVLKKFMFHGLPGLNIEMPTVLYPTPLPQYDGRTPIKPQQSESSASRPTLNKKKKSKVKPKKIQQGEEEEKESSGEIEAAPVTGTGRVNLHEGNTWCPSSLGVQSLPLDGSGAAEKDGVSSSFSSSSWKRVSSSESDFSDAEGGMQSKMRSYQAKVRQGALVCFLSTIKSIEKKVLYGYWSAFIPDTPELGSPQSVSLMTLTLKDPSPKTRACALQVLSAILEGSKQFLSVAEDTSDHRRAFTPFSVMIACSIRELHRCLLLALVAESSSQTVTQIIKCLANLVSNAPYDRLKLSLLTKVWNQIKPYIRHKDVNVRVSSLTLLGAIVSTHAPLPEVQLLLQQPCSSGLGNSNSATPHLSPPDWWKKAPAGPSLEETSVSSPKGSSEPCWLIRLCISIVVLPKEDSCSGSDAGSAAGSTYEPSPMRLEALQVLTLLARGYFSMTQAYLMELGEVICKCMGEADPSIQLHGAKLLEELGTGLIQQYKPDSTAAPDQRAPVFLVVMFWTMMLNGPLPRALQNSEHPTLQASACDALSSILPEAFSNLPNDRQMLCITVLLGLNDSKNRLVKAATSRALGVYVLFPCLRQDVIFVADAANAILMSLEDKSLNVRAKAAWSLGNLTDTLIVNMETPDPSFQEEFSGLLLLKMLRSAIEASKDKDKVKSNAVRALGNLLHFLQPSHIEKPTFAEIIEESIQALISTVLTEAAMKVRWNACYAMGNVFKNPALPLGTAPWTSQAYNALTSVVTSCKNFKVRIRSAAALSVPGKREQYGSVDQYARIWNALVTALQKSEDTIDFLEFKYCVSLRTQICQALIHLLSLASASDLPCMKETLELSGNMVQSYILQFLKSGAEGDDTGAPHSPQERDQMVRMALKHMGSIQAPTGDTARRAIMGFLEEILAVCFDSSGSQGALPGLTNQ
UniProt Q6PGQ7, whole entry: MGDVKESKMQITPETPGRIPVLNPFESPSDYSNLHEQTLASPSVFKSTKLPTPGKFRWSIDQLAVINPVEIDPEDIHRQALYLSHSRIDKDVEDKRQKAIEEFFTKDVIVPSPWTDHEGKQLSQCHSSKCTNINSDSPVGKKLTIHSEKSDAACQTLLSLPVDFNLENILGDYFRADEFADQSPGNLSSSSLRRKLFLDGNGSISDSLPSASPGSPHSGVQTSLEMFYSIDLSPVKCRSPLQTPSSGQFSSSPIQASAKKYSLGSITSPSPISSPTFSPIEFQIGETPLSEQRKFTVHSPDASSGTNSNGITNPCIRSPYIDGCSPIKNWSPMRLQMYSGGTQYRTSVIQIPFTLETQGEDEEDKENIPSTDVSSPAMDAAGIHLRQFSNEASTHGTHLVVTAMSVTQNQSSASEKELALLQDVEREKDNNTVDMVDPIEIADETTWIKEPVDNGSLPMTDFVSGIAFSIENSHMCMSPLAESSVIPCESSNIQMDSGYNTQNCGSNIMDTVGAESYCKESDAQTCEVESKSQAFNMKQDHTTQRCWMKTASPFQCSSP
UniProt Q5VUM1: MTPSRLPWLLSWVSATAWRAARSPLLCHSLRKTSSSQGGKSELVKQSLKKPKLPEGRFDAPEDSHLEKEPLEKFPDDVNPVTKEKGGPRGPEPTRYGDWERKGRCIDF
UniProt Q6UVJ0: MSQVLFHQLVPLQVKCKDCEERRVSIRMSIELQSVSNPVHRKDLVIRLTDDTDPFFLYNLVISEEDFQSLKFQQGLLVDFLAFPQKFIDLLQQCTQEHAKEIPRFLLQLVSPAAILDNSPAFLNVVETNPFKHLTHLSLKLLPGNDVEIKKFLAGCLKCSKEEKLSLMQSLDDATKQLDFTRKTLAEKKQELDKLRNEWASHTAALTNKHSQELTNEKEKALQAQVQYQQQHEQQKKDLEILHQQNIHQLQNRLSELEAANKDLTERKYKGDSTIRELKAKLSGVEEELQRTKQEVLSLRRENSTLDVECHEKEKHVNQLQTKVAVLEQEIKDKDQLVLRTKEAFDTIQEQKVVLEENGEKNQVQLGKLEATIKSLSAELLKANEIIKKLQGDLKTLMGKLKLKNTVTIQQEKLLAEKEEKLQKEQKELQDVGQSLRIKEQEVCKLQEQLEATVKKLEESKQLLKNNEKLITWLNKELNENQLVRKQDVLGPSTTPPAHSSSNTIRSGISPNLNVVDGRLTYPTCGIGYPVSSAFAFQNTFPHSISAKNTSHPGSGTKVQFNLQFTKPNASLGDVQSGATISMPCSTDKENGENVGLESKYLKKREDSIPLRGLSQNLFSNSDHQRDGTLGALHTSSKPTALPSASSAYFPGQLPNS
UniProt Q6UUV9: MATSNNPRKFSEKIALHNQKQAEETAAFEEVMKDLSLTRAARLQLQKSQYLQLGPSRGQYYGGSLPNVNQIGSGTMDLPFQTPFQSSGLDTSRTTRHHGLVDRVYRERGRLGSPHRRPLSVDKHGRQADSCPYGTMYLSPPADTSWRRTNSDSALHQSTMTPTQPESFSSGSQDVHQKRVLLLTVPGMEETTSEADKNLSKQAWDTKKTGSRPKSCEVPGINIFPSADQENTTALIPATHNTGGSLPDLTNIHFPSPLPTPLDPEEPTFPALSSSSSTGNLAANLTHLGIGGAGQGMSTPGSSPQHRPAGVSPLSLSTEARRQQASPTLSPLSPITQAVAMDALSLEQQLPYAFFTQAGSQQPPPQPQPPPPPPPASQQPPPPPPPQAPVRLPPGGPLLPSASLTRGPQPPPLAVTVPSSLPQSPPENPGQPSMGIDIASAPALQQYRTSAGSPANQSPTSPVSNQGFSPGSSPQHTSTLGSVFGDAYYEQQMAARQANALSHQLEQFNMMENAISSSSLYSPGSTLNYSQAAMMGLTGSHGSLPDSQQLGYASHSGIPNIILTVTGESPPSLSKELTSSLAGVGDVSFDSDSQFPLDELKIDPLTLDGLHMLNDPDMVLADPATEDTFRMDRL
UniProt Q6SPF0: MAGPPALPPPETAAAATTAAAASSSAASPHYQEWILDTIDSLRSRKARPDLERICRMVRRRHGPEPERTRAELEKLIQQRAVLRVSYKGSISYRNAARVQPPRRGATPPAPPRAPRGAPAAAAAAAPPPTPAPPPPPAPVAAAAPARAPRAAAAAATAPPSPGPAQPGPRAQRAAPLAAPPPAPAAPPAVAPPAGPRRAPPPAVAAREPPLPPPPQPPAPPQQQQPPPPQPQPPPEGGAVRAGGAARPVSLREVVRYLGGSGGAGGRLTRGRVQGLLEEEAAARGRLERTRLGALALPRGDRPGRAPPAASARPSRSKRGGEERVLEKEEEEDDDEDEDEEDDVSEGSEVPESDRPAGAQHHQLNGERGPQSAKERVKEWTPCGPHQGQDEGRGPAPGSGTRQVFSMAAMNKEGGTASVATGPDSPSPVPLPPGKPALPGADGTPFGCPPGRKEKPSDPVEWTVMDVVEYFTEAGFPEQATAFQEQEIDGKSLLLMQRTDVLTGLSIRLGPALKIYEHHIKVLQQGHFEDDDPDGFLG

| Target | log2 fold change |
| --- | --- |
| DENND5A (peptide sequence: FVTAINNTPR, peptide start residue: 1201) (UniProt Q6IQ26) | -0.224 |
| TMEM205 (peptide sequence: GLGGEVPGSHQGPDPYR, peptide start residue: 125) (UniProt Q6UW68) | 0.218 |
| HEATR6 (peptide sequence: SAAALSVPGKR, peptide start residue: 1020) (UniProt Q6AI08) | -0.281 |
| UniProt Q6PGQ7 (peptide sequence: DVIVPSPWTDHEGK, peptide start residue: 107) | -0.319 |
| SDHAF4 (peptide sequence: FDAPEDSHLEK, peptide start residue: 58) (UniProt Q5VUM1) | 0.044 |
| SASS6 (peptide sequence: MSIELQSVSNPVHRK, peptide start residue: 28) (UniProt Q6UVJ0) | 0.135 |
| CRTC1 (peptide sequence: QAWDTKK, peptide start residue: 202) (UniProt Q6UUV9) | -0.224 |
| SAMD1 (peptide sequence: TDVLTGLSIR, peptide start residue: 499) (UniProt Q6SPF0) | -0.553 |

From the supplement of paper PMC12819154, “High-throughput peptide-centric local stability assay extends protein–ligand identification to membrane proteins, tissues and bacteria” (Nature Structural & Molecular Biology, 2025)
